The text below walks through data of PMC10603098.

Amino acid sequences for entries named in this document (tags omitted).
UniProt D3ZK93: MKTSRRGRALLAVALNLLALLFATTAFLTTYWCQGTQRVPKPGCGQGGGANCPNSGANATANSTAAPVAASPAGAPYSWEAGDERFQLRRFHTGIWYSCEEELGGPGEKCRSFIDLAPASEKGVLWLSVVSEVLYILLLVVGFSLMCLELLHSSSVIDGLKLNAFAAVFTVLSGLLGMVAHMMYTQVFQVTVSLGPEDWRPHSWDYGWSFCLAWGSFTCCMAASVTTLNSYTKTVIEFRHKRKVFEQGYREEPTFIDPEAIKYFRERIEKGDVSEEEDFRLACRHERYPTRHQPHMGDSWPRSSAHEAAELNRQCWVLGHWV

B1: transmembrane AMPAR regulatory protein γ3 (TARP γ3) (protein, UniProt Q8VHX0 1-315)
chain: MRMCDRGIQMLITTVGAFAAFSLMTIAVGTDYWLYSRGVCRTKSTSDNETSRKNEEVMTHSGLWRTCCLEGAFRGVCKKIDHFPEDADYEQDTAEYLLRAVRASSVFPILSVTLLFFGGLCVAASEFHRSRHSVILSAGIFFVSAGLSNIIGIIVYISANAGDPGQRDSKKSYSYGWSFYFGAFSFIIAEIVGVVAVHIYIEKHQQLRARSHSELLKKSTFARLPPYRYRFRRRSSSRSTEPRSRDLSPISKGFHTIPSTDISMFTLSRDPSKLTMGTLLNSDRDHAFLQFHNSTPKEFKESLHNNPANRRTTPV
B2: leucine-rich repeat transmembrane protein 4 (LRRT4) (protein, UniProt B4F7C5 31-590)
chain: QRACPKNCRCDGKIVYCESHAFADIPENISGGSQGLSLRFNSIQKLKSNQFAGLNQLIWLYLDHNYISSVDEDAFQGIRRLKELILSSNKITYLHNKTFHPVPNLRNLDLSYNKLQTLQSEQFKGLRKLIILHLRSNSLKTVPIRVFQDCRNLDFLDLGYNRLRSLSRNAFAGLLKLKELHLEHNQFSKINFAHFPRLFNLRSIYLQWNRIRSVSQGLTWTWSSLHTLDLSGNDIQAIEPGTFKCLPNLQKLNLDSNKLTNVSQETVNAWISLISITLSGNMWECSRSICPLFYWLKNFKGNKESTMICAGPKHIQGEKVSDAVETYNICSDVQVVNTERSHLAPQTPQKPPFFPKPTIFKSDAIPATLEAVSPSPGFQIPGTDHEYEHVSFHKIIAGSVALFLSVAMILLVIYVSWKRYPASMKQLQQHSLMKRRRKKARESERQMNSPLQEYYVDYKPTNSETMDISVNGSGPCTYTISGSRECEMPHHVKPLPYYSYDQPVIGYCQAHQPLHINKAYEAVSIEQDDSPSLELGRDHSFIATIARSAAPAIYLERITN
B3: transmembrane AMPAR regulatory protein γ8 (TARP γ8) (protein, UniProt Q8VHW5 1-421)
chain: MESLKRWNEERGLWCEKGVQVLLTTIGAFAAFGLMTIAISTDYWLYTRALICNTTNLTAGDDGPPHRGGSGSSEKKDPGGLTHSGLWRICCLEGLKRGVCVKINHFPEDTDYDHDSAEYLLRVVRASSIFPILSAILLLLGGVCVAASRVYKSKRNIILGAGILFVAAGLSNIIGVIVYISANAGEPGPKRDEEKKNHYSYGWSFYFGGLSFILAEVIGVLAVNIYIERSREAHCQSRSDLLKAGGGAGGSGGSGPSAILRLPSYRFRYRRRSRSSSRGSSEASPSRDASPGGPGGPGFASTDISMYTLSRDPSKGSVAAGLASAGGGGGGAGVGAYGGAAGAAGGGGTGSERDRGSSAGFLTLHNAFPKEAASGVTVTVTGPPAAPAPAPPAPAAPAPGTLSKEAAASNTNTLNRKTTPV
B4: ABHD6 (protein, UniProt Q5XI64 1-337)
chain: MDLDVVNMFVIAGGTLAIPILAFVASFLLWPSALIRIYYWYWRRTLGMQVRYVHHEDYQFCYSFRGRPGHKPSVLMLHGFSAHKDMWLSVVKFLPKNLHLVCVDMPGHEGTTRSSLDDLSIVGQVKRIHQFVECLKLNKKPFHLIGTSMGGNVAGVYAAYYPSDVCSLSLVCPAGLQYSTDNRFVQRLKELEDSAATQKIPLIPSTPEEMSEMLQLCSYVRFKVPQQILQGLVDVRIPHNSFYRKLFLEIVSEKSRYSLHENMDKIKVPTQIIWGKQDQVLDVSGADILAKSITNSQVEVLENCGHSVVMERPRKTAKLVVDFLASVHNPDNNKKLN
B5: FRRS1L (protein, UniProt D3ZE85 29-293)
chain: SPADDGAGPGGRGPRGRARGDAGADEAVPRHDSSYGTFAGEFYDLRYLSEEGYPFPTAPPVDPFAKIKVEDCGRTKGCFRYGKPGCNAETCDYFLSYRMIGADVEFELSADTDGWVAVGFSSDKKMGGDDVMACVHDDNGRVRIQHFYNVGQWAKEVQRNPARDEEGVFENNRVTCRFKRPVNVPRDETIVDLHLSWYYLFAWGPAIQGSITRHDIDSPPASERVVSIYKYEDIFMPSAAYQTFSSPFCLLLIVALTFYLLMGTP
B6: CPT1c (protein, UniProt F1LN46 1-801)
chain: MAEAHQASSLLSSLSSDGAEVELSSSVWQEIYLSALRSWKRNLWRVWNDFLAGVVPATPLSWLFLFSTIQLACLLQLDPSLGLMEKIKELLPDWGGQHHQLQGLLAAAVFASCLWGTLIFTLHVALRLLLSHHGWLLEPHGTMSSPTKTWLALVRIFSGRHPRLFSFQRALPRQPVPGAQETVRKYLESMRPVLRDDAFDSVVALANDFLRLQAPRLQLYLQLKSWCASNYVSDWWEEFVYLRSRGSLVNSTYYMMDFLYVTPTPLQAARAGNAVHTLLLYRHLLNRQEIPPTLLMGMRPLCSAQYERMFNTTRIPGVEKDYLCHLQDSQHVAVFHQGRFFRVGTHSSNGLLSPRALEQQFQYILDDPSPACPLEEHLAALTAAPRSMWAQVRESVKTHAATALETVEGAAFFVSLDSEPAGLTRENPAASLDTYAHTLLTGQGHDRWFDKSFTLIVFSNGKLGLSVEHSWADCPVAGHLWEFTLATECFQLGYATDGHCKGHPDPALPKPQRLQWDLPKQIQPSISLALRGAKTLSGNIDCHVFPFFHFGKSFIKGCHVSSDSFIQLVLQLAHFRDRGQFCLTYESAMTRLFLEGRTETVRSCTREACQFVRAMENKERTDQQCLALFREAVDKHQALLKAAMSGQGIDRHLFALYIMSRLLHMQSPFLTQVQSQQWLLSTSQIPVQQTHLFDVHNYPDYVSSGGGFGPAHDHGYGVSYIFMGENAISFHISSKQSSTETDSHRLGQHIEDALLDVASLFQAGQQFKRQFTGLGESSGWKYSNLSCKTVDPNIPKSSTNL
B7: cornichon 2 (CNIH2) (protein, UniProt Q5BJU5 1-160)
chain: MAFTFAAFCYMLTLVLCASLIFFVIWHIIAFDELRTDFKNPIDQGNPARARERLKNIERICCLLRKLVVPEYSIHGLFCLMFLCAAEWVTLGLNIPLLFYHLWRYFHRPADGSEVMYDAVSIMNADILNYCQKESWCKLAFYLLSFFYYLYSMVYTLVSF

These are yes or no findings as the source states them, for the method shown. In cells and extracts the contact can be indirect. Here binding means that the protein was enriched with, or labelled near, the bait; the list need not be complete. For some assays here: A no says only that the protein was not detected with the bait.

The target in the first assay is germ cell-specific gene 1-like protein (GSG1L) (rat (endogenous in rat brain)) (UniProt D3ZK93). The assay is described as follows: affinity purification with mass spectrometry; multi-epitope AP-MS: three polyclonal anti-GSG1L antibodies on protein A Dynabeads, 2 h; membranes of adult (P59) rat brain solubilised in CL-47; GSG1L KO rats as negative control; minimum tnR of 0.25 as indicator of specific interaction.
On to B1, for which the binding entry is “binds”. On to B2, for which the binding result is on record as “binds”. On to B3, for which the binding result is “binds”. The same measure, in the same setting: for B4 the value was “no binding”; for B5, “no binding”. Still for that read-out and setting: the result for B6 reads “no binding”; that for B7, “binds”.

The target is the same in the next assay. Description: affinity purification with mass spectrometry; two-step APs: WT rat brain membranes solubilised in CL-91; first a target-depleting mixture of anti-GSG1L antibodies, then a mixture of anti-GluA1-4 antibodies, each 2 h on protein A Dynabeads.
Consider B2, for which the binding result is reported as “binds”.
